Source: PubChem BioAssay (EPA / NIEHS)
Where “and” joins values, the source holds several entries; their conditions need not be identical. Equal entries are not always repeated. The inconclusive results got no clear call from the source; some entries with a clear call stand among them for comparison. For part of these data: Potencies beside an inconclusive call are fits to weak or partial responses and may not hold up. More than one record can exist for a structure, and the calls need not agree. Calls of active or inactive are those of the source. How the source made its calls: active means hit-call score of the fitted dose curve at least 0.9, where 1 is the maximum; inconclusive means response in the unintended direction; inactive means score below 0.9.

By UniProt entry, the sequences of proteins in these tests, tags left out. Where a name states a change or a piece, a line headed by the entry shows the natural chain unless it says otherwise.
UniProt P10276, whole entry, looked up: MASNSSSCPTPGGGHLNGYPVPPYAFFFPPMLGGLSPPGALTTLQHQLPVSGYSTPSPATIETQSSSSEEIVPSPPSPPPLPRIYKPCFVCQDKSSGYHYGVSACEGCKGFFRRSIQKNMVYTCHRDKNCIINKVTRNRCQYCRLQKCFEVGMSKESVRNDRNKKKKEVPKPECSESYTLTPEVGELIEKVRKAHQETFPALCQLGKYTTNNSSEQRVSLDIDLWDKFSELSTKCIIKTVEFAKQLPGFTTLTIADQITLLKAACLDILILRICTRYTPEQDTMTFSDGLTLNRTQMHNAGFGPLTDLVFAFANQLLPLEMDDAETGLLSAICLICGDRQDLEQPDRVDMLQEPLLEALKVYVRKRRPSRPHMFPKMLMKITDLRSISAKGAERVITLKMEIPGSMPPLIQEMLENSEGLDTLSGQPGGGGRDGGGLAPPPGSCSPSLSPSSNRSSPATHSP
UniProt P06401: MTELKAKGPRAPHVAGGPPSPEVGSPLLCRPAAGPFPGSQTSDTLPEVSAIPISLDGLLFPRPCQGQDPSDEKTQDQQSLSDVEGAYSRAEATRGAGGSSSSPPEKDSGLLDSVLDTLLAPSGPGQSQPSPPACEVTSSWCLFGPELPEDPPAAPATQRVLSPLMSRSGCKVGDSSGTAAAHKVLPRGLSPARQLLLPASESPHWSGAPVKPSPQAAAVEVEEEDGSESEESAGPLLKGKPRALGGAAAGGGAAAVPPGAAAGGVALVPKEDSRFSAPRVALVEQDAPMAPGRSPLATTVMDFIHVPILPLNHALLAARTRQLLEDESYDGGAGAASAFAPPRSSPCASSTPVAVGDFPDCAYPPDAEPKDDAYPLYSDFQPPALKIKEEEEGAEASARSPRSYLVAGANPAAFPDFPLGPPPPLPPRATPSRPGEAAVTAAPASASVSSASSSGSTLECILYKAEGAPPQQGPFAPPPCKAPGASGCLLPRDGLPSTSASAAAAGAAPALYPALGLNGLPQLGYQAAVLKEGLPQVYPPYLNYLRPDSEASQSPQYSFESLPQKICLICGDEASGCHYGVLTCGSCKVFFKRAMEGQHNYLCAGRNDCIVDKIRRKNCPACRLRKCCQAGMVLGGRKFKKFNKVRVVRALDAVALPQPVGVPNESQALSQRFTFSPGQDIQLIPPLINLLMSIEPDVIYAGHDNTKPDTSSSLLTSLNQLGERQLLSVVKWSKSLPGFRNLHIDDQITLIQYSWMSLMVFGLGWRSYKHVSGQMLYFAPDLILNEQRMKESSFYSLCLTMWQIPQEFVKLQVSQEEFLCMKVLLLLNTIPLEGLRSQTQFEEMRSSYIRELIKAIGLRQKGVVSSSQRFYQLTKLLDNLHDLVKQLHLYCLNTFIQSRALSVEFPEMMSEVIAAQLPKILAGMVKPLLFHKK
UniProt P10827: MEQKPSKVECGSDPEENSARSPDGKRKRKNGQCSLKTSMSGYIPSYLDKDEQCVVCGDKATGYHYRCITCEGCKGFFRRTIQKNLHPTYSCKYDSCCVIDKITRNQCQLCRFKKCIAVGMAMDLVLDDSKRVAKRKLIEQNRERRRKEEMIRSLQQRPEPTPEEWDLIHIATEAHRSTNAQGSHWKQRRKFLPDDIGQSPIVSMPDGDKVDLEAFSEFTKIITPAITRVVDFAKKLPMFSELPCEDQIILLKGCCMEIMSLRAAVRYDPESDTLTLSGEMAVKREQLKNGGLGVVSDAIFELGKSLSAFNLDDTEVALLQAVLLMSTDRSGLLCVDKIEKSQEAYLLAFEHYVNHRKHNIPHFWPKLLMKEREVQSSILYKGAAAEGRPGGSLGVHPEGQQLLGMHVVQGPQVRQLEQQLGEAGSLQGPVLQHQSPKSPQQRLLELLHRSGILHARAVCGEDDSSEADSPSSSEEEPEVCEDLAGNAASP
UniProt Q92731, whole entry, looked up: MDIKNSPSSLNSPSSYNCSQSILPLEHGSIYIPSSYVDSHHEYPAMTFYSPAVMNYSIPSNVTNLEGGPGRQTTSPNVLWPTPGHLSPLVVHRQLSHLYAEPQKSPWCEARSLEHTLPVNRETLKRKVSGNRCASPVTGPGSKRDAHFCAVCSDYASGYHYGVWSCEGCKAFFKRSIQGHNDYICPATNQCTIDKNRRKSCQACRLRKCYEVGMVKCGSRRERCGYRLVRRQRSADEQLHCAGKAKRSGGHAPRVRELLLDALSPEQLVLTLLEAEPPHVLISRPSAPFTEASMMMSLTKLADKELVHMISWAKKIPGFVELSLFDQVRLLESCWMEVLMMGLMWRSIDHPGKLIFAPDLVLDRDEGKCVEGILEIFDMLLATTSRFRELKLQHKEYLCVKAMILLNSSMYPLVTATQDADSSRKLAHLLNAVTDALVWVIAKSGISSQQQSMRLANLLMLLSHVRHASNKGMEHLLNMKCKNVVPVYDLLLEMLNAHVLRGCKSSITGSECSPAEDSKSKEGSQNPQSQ
UniProt O75469: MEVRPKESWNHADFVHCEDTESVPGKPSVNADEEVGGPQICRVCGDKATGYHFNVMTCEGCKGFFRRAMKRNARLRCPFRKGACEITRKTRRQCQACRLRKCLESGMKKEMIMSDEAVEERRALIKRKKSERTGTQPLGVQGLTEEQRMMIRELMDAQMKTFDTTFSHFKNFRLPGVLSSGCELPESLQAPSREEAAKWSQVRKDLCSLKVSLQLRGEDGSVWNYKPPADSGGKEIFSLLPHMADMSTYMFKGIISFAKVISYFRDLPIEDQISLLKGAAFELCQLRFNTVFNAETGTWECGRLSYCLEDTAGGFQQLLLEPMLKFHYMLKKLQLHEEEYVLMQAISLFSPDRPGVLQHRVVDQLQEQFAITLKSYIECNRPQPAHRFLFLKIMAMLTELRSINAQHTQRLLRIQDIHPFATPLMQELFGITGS
UniProt P37231: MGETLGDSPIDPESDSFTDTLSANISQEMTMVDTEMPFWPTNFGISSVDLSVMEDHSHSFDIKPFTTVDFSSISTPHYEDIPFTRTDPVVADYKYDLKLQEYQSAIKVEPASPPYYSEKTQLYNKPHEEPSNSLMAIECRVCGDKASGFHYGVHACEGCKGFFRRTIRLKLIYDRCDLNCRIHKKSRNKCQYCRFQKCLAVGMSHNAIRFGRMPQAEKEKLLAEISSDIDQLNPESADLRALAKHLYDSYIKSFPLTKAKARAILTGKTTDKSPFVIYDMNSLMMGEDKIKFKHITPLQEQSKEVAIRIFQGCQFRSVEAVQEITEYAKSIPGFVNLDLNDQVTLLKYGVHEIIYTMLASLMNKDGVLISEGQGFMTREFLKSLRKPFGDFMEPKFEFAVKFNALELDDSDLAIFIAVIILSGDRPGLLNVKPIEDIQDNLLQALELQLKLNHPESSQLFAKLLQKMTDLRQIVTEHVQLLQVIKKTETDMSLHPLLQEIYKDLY
UniProt Q01827, whole entry, looked up: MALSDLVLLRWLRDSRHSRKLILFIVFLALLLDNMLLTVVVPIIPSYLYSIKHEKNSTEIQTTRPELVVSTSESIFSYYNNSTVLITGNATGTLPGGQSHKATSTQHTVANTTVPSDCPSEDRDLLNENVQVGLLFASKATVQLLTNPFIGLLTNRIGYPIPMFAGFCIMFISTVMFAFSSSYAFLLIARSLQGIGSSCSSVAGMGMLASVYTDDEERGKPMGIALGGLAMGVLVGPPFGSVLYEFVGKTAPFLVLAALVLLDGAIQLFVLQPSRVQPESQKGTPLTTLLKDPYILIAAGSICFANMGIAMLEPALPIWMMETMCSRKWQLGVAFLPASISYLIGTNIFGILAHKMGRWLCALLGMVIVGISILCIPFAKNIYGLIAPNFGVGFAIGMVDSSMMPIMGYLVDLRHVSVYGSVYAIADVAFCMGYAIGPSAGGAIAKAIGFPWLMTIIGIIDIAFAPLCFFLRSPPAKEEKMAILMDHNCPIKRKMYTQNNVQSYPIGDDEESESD
UniProt Q07869: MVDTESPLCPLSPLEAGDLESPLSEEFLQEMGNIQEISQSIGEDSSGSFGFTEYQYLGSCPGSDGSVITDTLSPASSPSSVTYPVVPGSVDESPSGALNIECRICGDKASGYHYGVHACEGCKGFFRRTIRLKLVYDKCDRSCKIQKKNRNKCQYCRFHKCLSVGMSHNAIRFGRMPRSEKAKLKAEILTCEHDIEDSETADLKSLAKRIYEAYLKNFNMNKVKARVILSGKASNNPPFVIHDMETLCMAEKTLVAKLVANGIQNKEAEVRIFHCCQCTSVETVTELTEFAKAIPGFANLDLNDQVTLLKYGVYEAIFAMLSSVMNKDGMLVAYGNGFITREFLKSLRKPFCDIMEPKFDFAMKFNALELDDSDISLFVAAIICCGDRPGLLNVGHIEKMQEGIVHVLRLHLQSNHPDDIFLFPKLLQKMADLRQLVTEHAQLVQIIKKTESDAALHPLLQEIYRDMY
UniProt P15207: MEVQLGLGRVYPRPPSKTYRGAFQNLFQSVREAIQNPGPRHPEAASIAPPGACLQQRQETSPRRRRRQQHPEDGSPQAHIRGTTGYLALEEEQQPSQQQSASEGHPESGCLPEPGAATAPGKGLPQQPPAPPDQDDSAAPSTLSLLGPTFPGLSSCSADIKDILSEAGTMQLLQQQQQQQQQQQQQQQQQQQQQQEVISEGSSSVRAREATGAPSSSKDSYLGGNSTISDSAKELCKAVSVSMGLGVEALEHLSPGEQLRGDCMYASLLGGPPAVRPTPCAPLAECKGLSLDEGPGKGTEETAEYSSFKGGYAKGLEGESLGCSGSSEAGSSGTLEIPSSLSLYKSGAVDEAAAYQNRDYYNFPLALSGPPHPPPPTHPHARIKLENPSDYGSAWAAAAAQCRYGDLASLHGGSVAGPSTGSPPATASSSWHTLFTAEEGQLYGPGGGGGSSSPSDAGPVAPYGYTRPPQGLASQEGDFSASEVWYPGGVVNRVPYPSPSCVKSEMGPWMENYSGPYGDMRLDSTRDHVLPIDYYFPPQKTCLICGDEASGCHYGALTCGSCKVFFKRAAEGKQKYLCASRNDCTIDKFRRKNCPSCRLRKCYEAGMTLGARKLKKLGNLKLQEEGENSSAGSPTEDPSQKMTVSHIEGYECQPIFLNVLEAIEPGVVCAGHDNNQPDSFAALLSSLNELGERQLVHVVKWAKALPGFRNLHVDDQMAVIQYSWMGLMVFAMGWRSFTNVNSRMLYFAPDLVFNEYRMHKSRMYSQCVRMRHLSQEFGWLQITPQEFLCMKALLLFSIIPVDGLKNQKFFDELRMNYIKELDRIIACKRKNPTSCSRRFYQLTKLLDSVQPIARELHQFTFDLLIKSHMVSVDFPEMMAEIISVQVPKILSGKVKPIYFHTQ
UniProt P23975, whole entry, looked up: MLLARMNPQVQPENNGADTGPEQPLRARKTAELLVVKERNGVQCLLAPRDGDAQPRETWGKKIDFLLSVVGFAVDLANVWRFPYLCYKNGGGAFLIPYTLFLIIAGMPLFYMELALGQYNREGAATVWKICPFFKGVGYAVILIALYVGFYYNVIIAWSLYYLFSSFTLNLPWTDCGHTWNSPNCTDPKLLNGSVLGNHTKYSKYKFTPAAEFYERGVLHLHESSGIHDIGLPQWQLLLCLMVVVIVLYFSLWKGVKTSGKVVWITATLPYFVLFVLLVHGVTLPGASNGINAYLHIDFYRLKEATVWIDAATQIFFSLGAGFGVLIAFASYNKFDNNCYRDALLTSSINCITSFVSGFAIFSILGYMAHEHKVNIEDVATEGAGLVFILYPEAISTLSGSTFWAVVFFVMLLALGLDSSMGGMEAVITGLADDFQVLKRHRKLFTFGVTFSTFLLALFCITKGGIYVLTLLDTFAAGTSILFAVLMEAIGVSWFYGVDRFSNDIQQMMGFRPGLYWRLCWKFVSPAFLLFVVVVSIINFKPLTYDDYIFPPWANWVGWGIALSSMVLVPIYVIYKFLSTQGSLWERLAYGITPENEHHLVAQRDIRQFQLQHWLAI

Legend:
[1] = biological target: Retinoic acid receptor alpha (Homo sapiens) (UniProt P10276); assay: NVS_NR_hRAR_Antagonist: NovaScreen (NVS) Nuclear Receptor Binding Assay for human Retinoic Acid Alpha Receptor Antagonism (RAR) (AID 2283358)
Summary of the method: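 Cell-free TR-FRET binding assay with extracted human RARalpha in antagonist mode, read 2 h after dosing. Loss of signal was fitted relative to DMSO; the primary screen used 25 uM in duplicate, with concentration series on follow-up.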

PGR (gene 5241) = PGR (gene 5241) (UniProt P06401); assay: NVS_NR_hPR: NovaScreen (NVS) Nuclear Receptor Binding Assay for human Progestron Receptor (PR) (AID 2283360);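 further: active means loss of bound radioligand signal versus DMSO baseline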
Summary of the method: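 Competitive displacement of a labelled radioligand from T47D-derived receptor protein is measured in a cell-free format. Initial testing uses 25 uM in duplicate, with positive and negative controls on every plate.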

[2] = biological target: human Thyroid Receptor Alpha (TRa), THRA (gene 7067) (UniProt P10827); assay: NVS_NR_hTRa_Antagonist: NovaScreen (NVS) Nuclear Receptor Binding Assay for human Thyroid Receptor Alpha Antagonism (TRa) (AID 2283362);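 further: activity is loss of signal relative to DMSO baseline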
Summary of the method: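 Extracted protein, cell-free; 1 h incubation after dosing; AlphaLISA chemiluminescence binding readout. DMSO = baseline/neg ctrl; signal loss = activity. Primary: duplicate, 25 uM; secondary: conc. series on actives.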

[3] = biological target: Estrogen receptor beta (Homo sapiens) (UniProt Q92731); assay: OT_ER_ERbERb_0480: Odyssey Thera (OT) 8-hour HEK293T Protein-Complementation Assay for Estrogen Receptor-beta/-beta Homodimer (AID 2283357);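 further: active means signal gain over DMSO baseline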
Summary of the method: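 Fluorescence intensity, nuclear for agonists and nuclear plus cytoplasmic for antagonists, was quantified by laser scanning cytometry versus vehicle after 8 h treatment. The cells were HEK293T stably carrying ER beta LBD fragment-complementation partners.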

[4] = biological target: Nuclear receptor subfamily 1 group I member 2 (Homo sapiens) (UniProt O75469); assay: NVS_NR_hPXR: NovaScreen (NVS) Nuclear Receptor Binding Assay for human Pregnane X Receptor (PXR) (AID 2283365);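 further: a drop in FRET signal versus DMSO baseline means the compound binds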
Summary of the method: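 Human PXR protein, cell-free; compound added, incubated 2 h, TR-FRET read. Signal decrease vs DMSO = binding. Screened 25 uM duplicate, actives re-run as dilution series.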

[5] = biological target: Peroxisome proliferator-activated receptor gamma (Homo sapiens) (UniProt P37231); assay: NVS_NR_hPPARg: NovaScreen (NVS) Nuclear Receptor Binding Assay for human Peroxisome Proliferator-activated Receptor gamma (PPARg) (AID 2283370)
Summary of the method: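 Chemicals were tested first in duplicate at 25 uM, then in concentration series if active. Binding to cell-free PPARg protein was measured by fluorescence polarization after 2 h, with loss of signal scored against DMSO.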

[6] = biological target: Norway rat Vesicular Monoamine Transporter (VMAT2), neurotransmitter transporter, Slc18a2 (gene 25549) (UniProt Q01827); assay: NVS_TR_rVMAT2: NovaScreen (NVS) Transporter Assay for Norway rat Vesicular Monoamine Transporter (VMAT2), neurotransmitter transporter (AID 2283376);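 further: actives lower the bound radioligand signal below the DMSO level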
Summary of the method: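 Radioligand displacement binding on rat forebrain tissue preparation, filter-based scintillation read-out 1 hour after dosing. Primary screen in duplicate at 25 uM, then concentration series for actives; loss of signal versus DMSO.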

[7] = tested on: guinea pig Dopamine Transporter (DAT), gene 100714898; assay: NVS_TR_gDAT: NovaScreen (NVS) Transporter Assay for guinea pig Dopamine Transporter (DAT) (AID 2283369);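 further: active compounds lower bound radioligand signal relative to DMSO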
Summary of the method: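 Scintillation counts of filter-retained radioligand report binding to guinea pig striatal membranes after 2 h. Activity scored as signal loss relative to DMSO, first at 25 uM in duplicate, then in concentration series to 50 uM.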

[8] = biological target: human Peroxisome Proliferator-activated Receptor alpha (PPARa), PPARA (gene 5465) (UniProt Q07869); assay: NVS_NR_hPPARa: NovaScreen (NVS) Nuclear Receptor Binding Assay for human Peroxisome Proliferator-activated Receptor alpha (PPARa) (AID 2283359);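 further: activity means loss of TR-FRET signal versus DMSO baseline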
Summary of the method: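 Cell-free TR-FRET binding assay with extracted PPARα protein, read 1 h after dosing. Primary screen in duplicate at 25 uM, with actives retested in concentration series. Loss of signal versus DMSO.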

[9] = biological target: rat Androgen Receptor (AR), Ar (gene 24208) (UniProt P15207); assay: NVS_NR_rAR: NovaScreen (NVS) Nuclear Receptor Binding Assay for rat Androgen Receptor (AR) (AID 2283366)
Summary of the method: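 Cell-free radioligand binding on extracts of prostate from testosterone-pretreated rats, read by filter-based scintillation counting 18 h after dosing. Loss of bound signal fitted positively versus DMSO; primary screen in duplicate at 25 uM, actives followed up in concentration series.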

[10] = tested on: rat Norepinephrine Transporter (NET), gene 83511; assay: NVS_TR_rNET: NovaScreen (NVS) Transporter Assay for rat Norepinephrine Transporter (NET) (AID 2283373)
Summary of the method: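 Rat forebrain membranes; radioligand binding measured by filter-based scintillation counting 1 hour after dosing. Loss of specific binding versus DMSO baseline scored; primary screen in duplicate at 25 uM, actives followed up in concentration series.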

[11] = biological target: human Norepinephrine Transporter (NET), SLC6A2 (gene 6530) (UniProt P23975); assay: NVS_TR_hNET: NovaScreen (NVS) Transporter Assay for human Norepinephrine Transporter (NET) (AID 2283377);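 on AC50: displacement of radioligand from human NET seen as loss of scintillation signal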
Summary of the method: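 Cell-free radioligand binding using CHO-derived membrane protein expressing human NET, read by filter scintillation counting 1 h after dosing; loss of signal vs DMSO. Initial duplicate screen at 25 uM, actives retested in concentration series.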

CON(C)C(=O)Nc1ccc(Cl)c(Cl)c1 was tested, and the AC50 [1] was inconclusive: 0.0959 µM, the outcome (PGR (gene 5241)) was “inactive” and the AC50 [2] was inconclusive: 7.95 µM.
With O=P(O)(Oc1ccccc1)Oc1ccccc1 the outcome [3] was “inactive” and the AC50 [4] was inconclusive: 25 µM.
For CC1(C)Cc2cccc(O)c2O1, the outcome [3] was “inactive” and the outcome [4] was “inactive”.
For CC1(C(=O)Nc2ccc(O)c(Cl)c2Cl)CCCCC1, the AC50 [3] was active: 22.2 µM, the outcome (PGR (gene 5241)) was “inactive” and the AC50 [2] was inconclusive: 0.32 µM. The AC50 [5] was inconclusive: 0.987 µM.
c1ccc(P(c2ccccc2)c2ccccc2)cc1 was tested, and the AC50 [3] was active: 25.4 µM and the AC50 [5] was active: 14.9 µM.
With ClC1=C(Cl)[C@]2(Cl)[C@@H]3[C@@H](Cl)[C@H]4O[C@H]4[C@@H]3C1(Cl)C2(Cl)Cl the AC50 [3] was active: 13.8 µM, the AC50 [4] was inconclusive: 25 µM and the AC50 [6] was inconclusive: 25 µM.
COP(=S)(OC)SCn1nnc2ccccc2c1=O was tested, and the AC50 [1] was inconclusive: 25 µM, the AC50 (PGR (gene 5241)) was inconclusive: 0.417 µM and the AC50 [2] was inconclusive: 0.786 µM. The AC50 [5] was inconclusive: 0.053 µM.
With CC(C)OC(=O)Nc1cccc(Cl)c1 the AC50 [3] was inconclusive: 50 µM and the outcome [7] was “inactive”.
For OCc1ccco1, the outcome [3] was “inactive” and the outcome [4] was “inactive”.
With CCCCOC(=O)c1ccccc1C(=O)OCCCC the AC50 [1] was inconclusive: 25 µM, the outcome [1] was “inactive” and the AC50 (PGR (gene 5241)) was inconclusive: 0.834 µM. The AC50 [2] was inconclusive: 4.96 µM and active: 111 nM, the outcome [4] was “inactive” and the outcome [5] was “inactive”.
For CC(C)(c1ccccc1)c1ccc(O)cc1, the AC50 [1] was inconclusive: 25 µM and the AC50 [8] was inconclusive: 25 µM.
CCCCCCCc1ccc(O)cc1 was tested, and the AC50 [3] was active: 12.2 µM and active: 13.3 µM and active: 12.3 µM, the outcome [2] was “inactive” and the AC50 [9] was inconclusive: 0.05 µM. For the same compound, the AC50 [5] was inconclusive: 25 µM.
COc1ccc(C(c2ccc(OC)cc2)C(Cl)(Cl)Cl)cc1 was tested, and the outcome [1] was “inactive”, the AC50 (PGR (gene 5241)) was inconclusive: 25 µM and the AC50 [4] was inconclusive: 41 µM and inconclusive: 6.01 µM. The AC50 [10] was inconclusive: 0.14 µM and the outcome [6] was “inactive”.
With CC1(C)C(C=C(Cl)Cl)C1C(=O)OC(C#N)c1ccc(F)c(Oc2ccccc2)c1 (stereo not drawn) the AC50 [3] was inconclusive: 50 µM, the AC50 (PGR (gene 5241)) was inconclusive: 25 µM and the outcome [5] was “inactive”.
CC(C)(C)c1ccc(CSc2cnn(C(C)(C)C)c(=O)c2Cl)cc1 was tested, and the AC50 [1] was inconclusive: 7.65 µM.
With c1ccc2c(c1)sc1ccccc12 the AC50 [8] was inconclusive: 25 µM.
For CCCCCCCCCCBr, the AC50 (PGR (gene 5241)) was inconclusive: 0.0789 µM.
O=[N+]([O-])c1ccc(Oc2ccc(Cl)cc2Cl)cc1 was tested, and the AC50 [8] was inconclusive: 25 µM, the AC50 [2] was inconclusive: 0.00495 µM and the AC50 [5] was inconclusive: 25 µM.
COc1nn(CSP(=S)(OC)OC)c(=O)s1 was tested, and the AC50 [1] was inconclusive: 0.144 µM and the outcome [2] was “inactive”.
In the case of Cc1cc(C2CC2)nc(Nc2ccccc2)n1, the outcome [1] was “inactive” and the AC50 [11] was active: 3.82 µM.
With O=S1OCC2C(CO1)C1(Cl)C(Cl)=C(Cl)C2(Cl)C1(Cl)Cl (stereo not drawn) the outcome [1] was “inactive”, the AC50 [2] was inconclusive: 0.0626 µM and the outcome [5] was “inactive”.
In the case of Oc1ccc(Cl)cc1Cl, the AC50 [8] was inconclusive: 5.91 µM, the outcome (PGR (gene 5241)) was “inactive” and the outcome [2] was “inactive”.
For O=C(O)C(F)(F)C(F)(F)C(F)(F)C(F)(F)C(F)(F)F, the outcome [8] was “inactive” and the AC50 [2] was inconclusive: 6.7 µM.
With C#CCOS(=O)OC1CCCCC1Oc1ccc(C(C)(C)C)cc1 (stereo not drawn) the AC50 [1] was inconclusive: 25 µM, the AC50 (PGR (gene 5241)) was inconclusive: 6.61 µM and the outcome [5] was “inactive”.
With N#Cc1c(Cl)c(Cl)c(Cl)c(C#N)c1Cl the AC50 [1] was inconclusive: 4.96 µM and the AC50 [5] was active: 0.495 µM.
In the case of CCNc1nc(Cl)nc(NC(C)(C)C)n1, the AC50 (PGR (gene 5241)) was inconclusive: 1.81 µM.
In the case of COc1ccc(O)c(C(C)(C)C)c1, the AC50 [8] was inconclusive: 0.043 µM and the outcome [5] was “inactive”.
With CCC[CH2][Sn]([Cl])([Cl])[CH2]CCC the AC50 [8] was active: 12 µM and the AC50 [4] was active: 5.56 µM.
In the case of NS(=O)(=O)C(F)(F)C(F)(F)C(F)(F)C(F)(F)C(F)(F)C(F)(F)C(F)(F)C(F)(F)F, the AC50 [1] was inconclusive: 25 µM, the AC50 [9] was inconclusive: 25 µM and the outcome [5] was “inactive”.
CCC(C)c1cc([N+](=O)[O-])cc([N+](=O)[O-])c1O (stereo not drawn) was tested, and the AC50 [8] was inconclusive: 0.00229 µM.
With CCCCCCCCSC(=O)Oc1cc(Cl)nnc1-c1ccccc1 the outcome [8] was “inactive”.
With O=C1C2(Cl)C3(Cl)C4(Cl)C(Cl)(Cl)C5(Cl)C3(Cl)C1(Cl)C5(Cl)C24Cl (stereo not drawn) the AC50 [8] was inconclusive: 23.8 µM, the outcome [4] was “inactive” and the AC50 [6] was inconclusive: 23.8 µM.
For CCC(C)(C)c1ccc(O)c(C(C)(C)CC)c1, the AC50 [8] was inconclusive: 25 µM and the AC50 [2] was inconclusive: 44.6 µM.
For N#CCC#N, the outcome [8] was “inactive” and the outcome [4] was “inactive”.
With CC(C)(OO)c1ccccc1 the AC50 [8] was inconclusive: 25 µM and the outcome [11] was “inactive”.
CNC(=O)ON=C(SC)C(=O)N(C)C was tested, and the outcome [1] was “inactive”, the outcome (PGR (gene 5241)) was “inactive” and the AC50 [5] was inconclusive: 0.154 µM.
With C=CC1(C)OC(=O)N(c2cc(Cl)cc(Cl)c2)C1=O (stereo not drawn) the AC50 [8] was active: 37.4 µM, the AC50 (PGR (gene 5241)) was inconclusive: 0.0563 µM and the AC50 [2] was inconclusive: 6.02 µM. For the same compound, the AC50 [4] was inconclusive: 4.96 µM and inconclusive: 46.2 µM and inconclusive: 25 µM.
